PubChem BioAssay AID504744 | Drosophila RNAi Screening Center | 2011
In all, the deposit lists about 23,000 reagents; shown is an unselected part of those with a known target gene and a result. In the full data, 98 (0.43%) are marked active. 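Only hit calls are given; the phospho-dAkt signals, z-scores and hit direction were not deposited.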 A plus sign joins genes that one reagent is predicted to hit.

- Purpose: 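Uncover factors, including feedback loops, that control dAkt activation in fly cells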 (primary screen)
- System: Drosophila Kc167 cells
- Reagent: long dsRNA against Drosophila genes, 250 ng dsRNA per well of a 384-well plate
- Timing: 3 days of knock-down, then overnight serum-free starvation before stimulation
- Challenge: bovine insulin at 387 nM for 10 minutes after 12 h without serum
- Detection: 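Per-well phospho-dAkt level from an in-cell fluorescent antibody stain, divided by a DNA-dye signal; log2 residuals turned into z-scores that take cell number into account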
- Rule for the call: 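Hit in the insulin screen when the two-replicate mean z-score is more extreme than plus or minus 2.5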

Gene	DRSC id	call
CG2875	DRSC18231	inactive
CG11714	DRSC09857	inactive
CG15155	DRSC02456	inactive
Sdc	DRSC04654	inactive
Bdp1	DRSC03192	inactive
Gagr	DRSC10441	inactive
CG5323	DRSC06929	inactive
CG2116	DRSC18206	inactive
Cyp9f2	DRSC16635	inactive
CG42588	DRSC09820	inactive
CG42588	DRSC22121	inactive
Lip3	DRSC16727	inactive
fbp	DRSC02077	inactive
CNT1	DRSC06082	inactive
CG14302	DRSC14781	inactive
Mrm2	DRSC14310	inactive
Alms1b + Alms1a	DRSC18559	inactive
Esyt2	DRSC16082	inactive
Gr22e	DRSC20912	inactive
CG9518	DRSC20194	inactive
Grl62c	DRSC07964	inactive
CG3119	DRSC00569	inactive
Pdzd8	DRSC19355	inactive
CG32564	DRSC19933	inactive
Ptr	DRSC04852	inactive
Ptr	DRSC21517	inactive
BicC	DRSC02005	inactive
CG6865	DRSC10732	inactive
Aasdh	DRSC03467	inactive
otk2	DRSC07303	inactive
RpL9	DRSC03418	inactive
PCID2	DRSC10822	inactive
Efa6	DRSC13569	inactive
Efa6	DRSC15312	inactive
Efa6	DRSC16141	active
H2.0	DRSC03340	inactive
H2.0	DRSC22555	inactive
Sgs5	DRSC16862	inactive
Coa8	DRSC17959	inactive
Sxl + CG14425 (retired record)	DRSC18721	inactive
Sxl + CG14425 (retired record)	DRSC18722	inactive
Sxl + CG14425 (retired record)	DRSC21490	inactive
CG33792	DRSC05355	inactive
Pabp2	DRSC07501	inactive
CG3168	DRSC18287	inactive
asf1	DRSC11324	inactive
mus302	DRSC09905	inactive
mag	DRSC11787	inactive
CG34163	DRSC01219	inactive
Obp47a	DRSC06255	inactive
CG10560	DRSC14256	inactive
eIF4E1	DRSC11342	inactive
AANATL7	DRSC18616	inactive
mus101	DRSC19388	inactive
Cht9	DRSC04079	inactive
CG13723	DRSC10052	inactive
mav	DRSC17149	inactive
AANATL3	DRSC02089	inactive
whe	DRSC20537	inactive
Urm1	DRSC22941	inactive
eIF3h	DRSC01995	inactive
Sys1	DRSC14372	inactive
CG15546	DRSC15084	inactive
CG15546	DRSC22831	inactive
prt	DRSC16894	inactive
S-Lap2	DRSC10628	inactive
ppk28	DRSC19919	inactive
CG18493	DRSC15334	inactive
CG15252	DRSC17981	inactive
Tbc1d8-9	DRSC11820	inactive
CG8243	DRSC07122	inactive
CG8243	DRSC22608	inactive
Arp5	DRSC16350	inactive
CG7290	DRSC10800	inactive
Akr1B	DRSC10581	inactive
dos	DRSC07992	inactive
dos	DRSC08713	inactive
CR30068 (retired record)	DRSC05477	inactive
Vha36-1	DRSC07098	inactive
Pop4	DRSC10955	inactive
etaTry	DRSC07613	inactive
CG10927	DRSC06014	inactive
cd	DRSC16157	inactive
lva	DRSC18403	inactive
RpL27A	DRSC00781	inactive
CG30056	DRSC21752	inactive
Rab9Db + Rab9Fa	DRSC18445	inactive
mtDNA-helicase	DRSC02912	inactive
CG32512	DRSC20519	inactive
CG32512	DRSC20551	inactive
CG32512	DRSC21401	inactive
Roc1b + Cdc5	DRSC08687	inactive
mino	DRSC14132	inactive
Oatp26F	DRSC02149	inactive
Oatp26F	DRSC02272	inactive
Oatp26F	DRSC02695	inactive
CG14763	DRSC06497	inactive
Zaf1	DRSC16121	inactive
CG32115	DRSC22607	inactive
CG34033	DRSC05190	inactive
Acp36DE	DRSC01860	inactive
RecQ4	DRSC11265	inactive
ttm50	DRSC18587	inactive
Rpt3	DRSC20283	inactive
CAH1 + Adat1	DRSC02009	inactive
PolQ	DRSC17006	inactive
CG7420	DRSC00704	inactive
ms(2)35Ci	DRSC01460	inactive
CG31467	DRSC16048	inactive
CG14715	DRSC14938	inactive
oc	DRSC18808	inactive
CG4511	DRSC15589	inactive
Nup50	DRSC06827	inactive
CG7991	DRSC08609	inactive
CG14232	DRSC19588	inactive
CG42507 + Trl	DRSC09325	inactive
CG42507 + Trl	DRSC11308	inactive
MnM	DRSC08423	inactive
CG32236	DRSC08117	inactive
Mtl	DRSC16751	inactive
Rif1	DRSC05593	inactive
Zip42C.2	DRSC05004	inactive
Vha26	DRSC12371	inactive
Atg6	DRSC15798	inactive
RpLP0-like	DRSC06424	inactive
CG32579	DRSC19872	inactive
Ts	DRSC00795	inactive
Ts	DRSC22168	inactive
RpL27	DRSC15638	inactive
CG9400	DRSC20182	inactive
CG10801	DRSC17761	inactive
Las	DRSC11772	inactive
CG15530	DRSC15067	inactive
drk	DRSC07606	active
Spn28Db	DRSC22033	inactive
CG17726	DRSC15255	inactive
Crag	DRSC18454	inactive
Fdh	DRSC16670	inactive
slo	DRSC17057	inactive
pns	DRSC08598	inactive
GstD4	DRSC16685	inactive
E(spl)mdelta-HLH	DRSC16698	inactive
Cpr30B	DRSC02728	inactive
Nprl2	DRSC20153	inactive
ND-19	DRSC04404	inactive
Nf1	DRSC16758	inactive
Jhbp1	DRSC12167	inactive
ort	DRSC16240	inactive
MTA1-like	DRSC12382	inactive
MTA1-like	DRSC22022	inactive
GC2	DRSC14476	inactive
CG10748	DRSC09797	inactive
CG5756	DRSC06950	inactive
Ir84a	DRSC12510	inactive
SP1173	DRSC11277	inactive
RpL31	DRSC06716	inactive
Atg18a	DRSC10943	inactive

In a second layout: results already given.
Akr1B [DRSC10581]
- call: inactive

dos [DRSC07992]
- call: inactive

dos [DRSC08713]
- call: inactive

CR30068 (retired record) [DRSC05477]
- call: inactive

Vha36-1 [DRSC07098]
- call: inactive

Pop4 [DRSC10955]
- call: inactive

etaTry [DRSC07613]
- call: inactive

CG10927 [DRSC06014]
- call: inactive

cd [DRSC16157]
- call: inactive

lva [DRSC18403]
- call: inactive

RpL27A [DRSC00781]
- call: inactive

CG30056 [DRSC21752]
- call: inactive

Rab9Db + Rab9Fa [DRSC18445]
- call: inactive

mtDNA-helicase [DRSC02912]
- call: inactive

CG32512 [DRSC20519]
- call: inactive

CG32512 [DRSC20551]
- call: inactive

CG32512 [DRSC21401]
- call: inactive

Roc1b + Cdc5 [DRSC08687]
- call: inactive

mino [DRSC14132]
- call: inactive

Oatp26F [DRSC02149]
- call: inactive

Oatp26F [DRSC02272]
- call: inactive

Oatp26F [DRSC02695]
- call: inactive

CG14763 [DRSC06497]
- call: inactive
